Patent publication US20240317840A1
Numbering of substitutions follows the chain as printed. No constants are given. Whether binding was seen depends on the method and setting. A result given as binding can be weak or reduced; the word gives no strength.

B1: NOV3831 (antibody, human IgG1, lambda, V domains shown)
VH: EMQVLESGGGLVQPGGSLRLSCAASGFTFNNYAMSWVRQVPGKGLEWVSSISGSGGSTYYADSVKGQFTISRDNSKNTLYLQMNSLRAEDTAVYYCAKSSILSGGHARVYGIDVWGQGTTVTVSS
VL: QSALTQPPSVSVAPGQTARITCGGNNIGSQSVHWYQQKPGQAPILVVYDDTDRPSGIPARFSGSSSGSTATLTIGRVEAGDEADYYCQVWDSSSDHVVFGGGTKLTVLS
B2: NOV3832 (antibody, human IgG1, lambda, V domains shown)
VH: B1 VH with N30D
VL: B1 VL
B3: NOV3833 (antibody, human IgG1, lambda, V domains shown)
VH: B1 VH with N30H
VL: B1 VL
B4: NOV3834 (antibody, human IgG1, kappa, V domains shown)
VH: QVQLVESGGGVVQPGRSLRLSCAASGFTFNRYGMHWVRQAPGKGLEWVAGIWHDGSHKYYADSLRGRFTISRDNAKNTLDLQLNRLRAEDTSVYYCVRQTNRGRLDDAFDIWGQGTMVTVSS
VL: DIQMTQSPSSLSAAVGDRVTISCRASQTISSYLNWYQQKPGEAPKLLIYAASTLQSGVPSRFGGSGSGTDFTLTISSLQPEDSATYYCQQNYDTLWTFGQGTKVEIKR
B5: NOV3837 (antibody, human IgG1, kappa, V domains shown)
VH: QVQLQESGGRLVRPGGSLRLSCAASGFIFTDYYMTWIRQAPGKGPEWIAFITSGGETTYYADSVKGRFTISRDNAKKSLFLQMYSLRADDTAVYYCVRAHFDGYQYDTRGDFTYYFDNWGLGTLVSVSS
VL: EIVMTQSPATLSVSPGERVTLSCRASQSVSSSLAWYQQKPGRAPRLLIYGASTRATGVPARFSGGGSGTDFTLTISSLQSEDFAVYYCHQYINWPPGDTFGQGTRLDIKR
B6: NOV3838 (antibody, human IgG1, kappa, V domains shown)
VH: B5 VH with G103L
VL: B5 VL
B7: NOV3839 (antibody, human IgG1, kappa, V domains shown)
VH: B5 VH with G103I
VL: B5 VL
B8: NOV3840 (antibody, human IgG1, lambda, V domains shown)
VH: EVQLLESGGGLVQPGGSRRLSCAASGFTFSYYGMNWVRQAPGKGLEWVSGITNSGSITYYADSVKGRFSISRDNSKNTLFLQMNSLRAEDTAVYYCAKVGVRSSSGMWDLDYWGQGTLVTVSS
VL: SYVLTQPPSVSVAPGQTARLSCGGNNIGSKSLQWYQQKPGQAPVLVVNDDSDRPSGIPERFSGSNSGNTATLTISRVEAGDEADYYCQVWDTSSDHVVFGGGTKLTVLG
B9: NOV3841 (antibody, human IgG1, lambda, V domains shown)
VH: B8 VH with N53Q, S63T
VL: B8 VL with D50E
B10: NOV3842 (antibody, human IgG1, lambda, V domains shown)
VH: B8 VH with S54V, S63T
VL: B8 VL with D50E
B11: NOV3357 (antibody, human IgG1, kappa, V domains shown)
VH: EVQLLESGGGLVQPGGSLRLSCAASGFTFSPHAMSWVRQAPGKGLEWVSAISDSGGSTHYADSVKGRFTISRDNSKNTLYLQMNSLRAEDTAVYYCARDDDGWSGYDYWFDYWGQGTLVTVSS
VL: DIQMTQSPSSLSASVGDRVTITCRASQSISPYLNWYQQKPGKAPKLLIYAADSLQSGVPSRFSGSGSGTDFTLTISSLQPEDFATYYCQQSYKIPLTFGQGTKVEIKR
B12: NOV3540 (antibody, human IgG1, kappa, V domains shown)
VH: B11 VH with G102A
VL: B11 VL

target: HBsAg of HBV genotype B (AF 121245) (Hepatitis B virus); assay: sandwich ELISA

Q: For B1, which binding is on record?
A: The binding was “binds”.

Q: For B2, which binding is on record?
A: The binding was “binds”.

Q: For B3, which binding is on record?
A: The binding was “binds”.

Q: How did the binding turn out when B4 was run?
A: The binding was “binds”.

Q: Which binding does the source give for B5 here?
A: Its binding is “binds”.

Q: Which binding does the source give for B6 here?
A: The binding was “binds”.

Q: Which binding does the source give for B7 here?
A: The binding was “binds”.

Q: B8 was tested. Which binding did it give?
A: The binding was “binds”.

Q: For B9, which binding is on record?
A: Its binding is “binds”.

Q: For B10, which binding is on record?
A: The binding was “binds”.

Q: B11 was tested. Which binding did it give?
A: The binding was “binds”.

Q: Which binding does the source give for B12 here?
A: Its binding is “binds”.

target: HBsAg of HBV genotype C (DQ087960) (Hepatitis B virus); assay: sandwich ELISA

Q: How did the binding turn out when B1 was run?
A: Its binding is “binds”.

Q: B2 was tested. Which binding did it give?
A: Its binding is “binds”.

Q: Which binding does the source give for B3 here?
A: The binding was “binds”.

Q: Which binding does the source give for B4 here?
A: Its binding is “binds”.

Q: B5 was tested. Which binding did it give?
A: Its binding is “binds”.

Q: How did the binding turn out when B6 was run?
A: Its binding is “binds”.

Q: With B7 as the binder, how does the binding read?
A: The binding was “binds”.

Q: With B8 as the binder, how does the binding read?
A: Its binding is “binds”.

Q: For B9, which binding is on record?
A: The binding was “binds”.

Q: For B10, which binding is on record?
A: The binding was “binds”.

Q: B11 was tested. Which binding did it give?
A: The binding was “binds”.

Q: For B12, which binding is on record?
A: Its binding is “binds”.

target: HBsAg AD serotype (Hepatitis B virus); assay: SPR (Biacore), HBsAg particles immobilised on CM5 chip, antibody injected in 2-fold dilutions from 128 nM

Q: Which binding does the source give for B1 here?
A: The binding was “binds”.

Q: For B2, which binding is on record?
A: The binding was “binds”.

Q: With B3 as the binder, how does the binding read?
A: The binding was “binds”.

Q: B4 was tested. Which binding did it give?
A: The binding was “binds”.

Q: How did the binding turn out when B5 was run?
A: The binding was “binds”.

Q: For B6, which binding is on record?
A: The binding was “binds”.

Q: How did the binding turn out when B7 was run?
A: Its binding is “binds”.

Q: B8 was tested. Which binding did it give?
A: The binding was “binds”.

Q: With B9 as the binder, how does the binding read?
A: The binding was “binds”.

Q: B10 was tested. Which binding did it give?
A: Its binding is “binds”.

Q: For B11, which binding is on record?
A: The binding was “binds”.

Q: How did the binding turn out when B12 was run?
A: The binding was “binds”.

target: HBsAg AY serotype (Hepatitis B virus); assay: as above

Q: Which binding does the source give for B1 here?
A: Its binding is “binds”.

Q: How did the binding turn out when B2 was run?
A: Its binding is “binds”.

Q: For B3, which binding is on record?
A: Its binding is “binds”.

Q: B4 was tested. Which binding did it give?
A: The binding was “binds”.

Q: B5 was tested. Which binding did it give?
A: Its binding is “binds”.

Q: How did the binding turn out when B6 was run?
A: Its binding is “binds”.

Q: Which binding does the source give for B7 here?
A: Its binding is “binds”.

Q: For B8, which binding is on record?
A: Its binding is “binds”.

Q: B9 was tested. Which binding did it give?
A: Its binding is “binds”.

Q: B10 was tested. Which binding did it give?
A: The binding was “binds”.

Q: With B11 as the binder, how does the binding read?
A: Its binding is “binds”.

Q: How did the binding turn out when B12 was run?
A: The binding was “binds”.

target: HBsAg of HBV genotype B (AF 121245) (Hepatitis B virus); assay: sandwich ELISA: HBsAg from culture supernatant captured on horse polyclonal anti-HBsAg, antibody titrated, HRP anti-human IgG Fab, A450

Q: How did the binding turn out when B1 was run?
A: The binding was “binds”.

Q: For B2, which binding is on record?
A: The binding was “binds”.

Q: How did the binding turn out when B3 was run?
A: The binding was “binds”.

Q: How did the binding turn out when B4 was run?
A: The binding was “binds”.

Q: With B5 as the binder, how does the binding read?
A: The binding was “binds”.

Q: For B6, which binding is on record?
A: Its binding is “binds”.

Q: How did the binding turn out when B7 was run?
A: Its binding is “binds”.

Q: B8 was tested. Which binding did it give?
A: The binding was “binds”.

Q: How did the binding turn out when B9 was run?
A: Its binding is “binds”.

Q: Which binding does the source give for B10 here?
A: Its binding is “binds”.

Q: Which binding does the source give for B11 here?
A: The binding was “binds”.

Q: How did the binding turn out when B12 was run?
A: Its binding is “binds”.

target: HBsAg of HBV genotype C (DQ087960) (Hepatitis B virus); assay: as above

Q: How did the binding turn out when B1 was run?
A: The binding was “binds”.

Q: B2 was tested. Which binding did it give?
A: Its binding is “binds”.

Q: How did the binding turn out when B3 was run?
A: The binding was “binds”.

Q: How did the binding turn out when B4 was run?
A: The binding was “binds”.

Q: How did the binding turn out when B5 was run?
A: Its binding is “binds”.

Q: B6 was tested. Which binding did it give?
A: Its binding is “binds”.

Q: With B7 as the binder, how does the binding read?
A: The binding was “binds”.

Q: For B8, which binding is on record?
A: Its binding is “binds”.

Q: How did the binding turn out when B9 was run?
A: Its binding is “binds”.

Q: Which binding does the source give for B10 here?
A: Its binding is “binds”.

Q: How did the binding turn out when B11 was run?
A: Its binding is “binds”.

Q: With B12 as the binder, how does the binding read?
A: The binding was “binds”.
